Values from PubChem BioAssay AID1259405 (NCATS, 2018)
Aim: 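Mouse-designed siRNAs used to find CHO productivity engineering targets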 (primary screen). Cell system: Chinese hamster CHO-K1 ovary cells with stable secreted eGFP expression. Reagent: single siRNA against mouse genes, 0.8 pmol siRNA per well (2 µl of 400 nM stock). Duration: 3 days. Measurement: 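Per-well intracellular GFP measured by laser scanning cytometry, plus viability from ATP luminescence, each relative to plate median of non-targeting control wells, in %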. Reading the numbers: GFP, % of control: higher = more GFP per well, higher productivity; viability (ATP), % of control: higher = more viable cells (more ATP). Rule for the call: 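a knock-down is called active if GFP reaches 120% or more of non-targeting control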.
In all, the deposit lists about 50,000 reagents; below is an unselected part. In the full data, about 4,000 (8%) got an active call. 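Mouse siRNA library applied to hamster cells; one well for each siRNA.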 The numbers tell different reagents against one gene apart. Reagent sequences are not shown.

B3gat1 (beta-1,3-glucuronyltransferase 1) #1
- GFP, % of control: 101
- viability (ATP), % of control: 108
- activity call: inactive

B3gat1 (beta-1,3-glucuronyltransferase 1) #2
- GFP, % of control: 78.3
- viability (ATP), % of control: 117
- activity call: inactive

B3gat1 (beta-1,3-glucuronyltransferase 1) #3
- GFP, % of control: 93.9
- viability (ATP), % of control: 109
- activity call: inactive

Endod1 (endonuclease domain containing 1) #1
- GFP, % of control: 73.3
- viability (ATP), % of control: 75.1
- activity call: inactive

Endod1 (endonuclease domain containing 1) #2
- GFP, % of control: 82.7
- viability (ATP), % of control: 79.8
- activity call: inactive

Zfp189 (zinc finger protein 189) #1
- GFP, % of control: 65.1
- viability (ATP), % of control: 90.8
- activity call: inactive

Zfp189 (zinc finger protein 189) #2
- GFP, % of control: 43.1
- viability (ATP), % of control: 58.8
- activity call: inactive

Zfp189 (zinc finger protein 189) #3
- GFP, % of control: 80.4
- viability (ATP), % of control: 101
- activity call: inactive

Pag1 #1
- GFP, % of control: 92.6
- viability (ATP), % of control: 88
- activity call: inactive

Pag1 #2
- GFP, % of control: 79.8
- viability (ATP), % of control: 83.3
- activity call: inactive

Pag1 #3
- GFP, % of control: 110
- viability (ATP), % of control: 80.9
- activity call: inactive

The list goes on, starting with the last 2 of the part before.
Pag1 #2
- GFP, % of control: 79.8
- viability (ATP), % of control: 83.3
- activity call: inactive

Pag1 #3
- GFP, % of control: 110
- viability (ATP), % of control: 80.9
- activity call: inactive

Cst5 (cystatin D) #1
- GFP, % of control: 52.9
- viability (ATP), % of control: 74.6
- activity call: inactive

Cst5 (cystatin D) #2
- GFP, % of control: 108
- viability (ATP), % of control: 70.4
- activity call: inactive

Cst5 (cystatin D) #3
- GFP, % of control: 60.7
- viability (ATP), % of control: 40
- activity call: inactive

Pfn4 (profilin family, member 4) #1
- GFP, % of control: 79.8
- viability (ATP), % of control: 64
- activity call: inactive

Pfn4 (profilin family, member 4) #2
- GFP, % of control: 79.2
- viability (ATP), % of control: 52.7
- activity call: inactive

Pfn4 (profilin family, member 4) #3
- GFP, % of control: 51.3
- viability (ATP), % of control: 23.8
- activity call: inactive
